The other results are listed elsewhere or left out. These are further read-outs of the screen, such as a control signal, another cell line or another target. No call is given for them. Compounds called inactive in the main read-out are mostly missing here. The note in brackets gives the kind of curve behind each potency; many fits are weak.
Assay: qHTS Assay for Lipid Storage Modulators in Drosophila S3 Cells;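 for cell number change: cells counted by Cell Tracker Red CMTPX staining in the red channel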
Conditions: BODIPY lipid droplet fluorescence, 18-24 h; for cell number change: measured here: cell count max response, cells fed with added oleic acid
Summary of the method: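 Drosophila S3 cells loaded with oleic acid (400 uM, as added) and compounds at several concentrations; lipid droplets imaged by 488-nm laser-scanning cytometry, 500–530 nm intensity and object ratio to cell channel. Percent activity normalized to 20 uM Triacsin C.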

[1] = measured here: cell number channel AC50, cells fed with added oleic acid
[2] = measured here: lipid fluorescence (Fed channel) AC50, cells fed with added oleic acid

| Structure (SMILES) | cell number change [%] | AC50 [1] | AC50 [2] |
| --- | --- | --- | --- |
| NC(=O)c1c(NC(=O)c2cccnc2)sc2c1CCCC2 | -0.902 | 1.16 µM [rising, full curve, poor fit] |  |
| COC(=O)C(CC(C)C)NC(=O)c1ccc([N+](=O)[O-])c(C)c1 (configuration not stated) | -15.1 |  | 29.1 µM [falling, single point] |
| Cc1ccnc(N/C=C(\C#N)c2nc(-c3cccc(Br)c3)cs2)c1 | 35.2 | 0.731 µM [rising, full curve] | 1.3 µM [rising, partial curve] |
| COc1ccc2c(c1)CCc1c(C(=O)N3CCCc4ccccc43)noc1-2 | 93.6 | 13 µM [rising, partial curve] | 29.1 µM [rising, single point] |
| COc1ccc2nc(N3CCOCC3)cc(C)c2c1 | 19.4 |  | 2.06 µM [falling, partial curve] |
| CCCC(CCC(=O)OC)(C(=O)OCC)c1csc(N)n1 (configuration not stated) | 2.62 |  |  |
| COc1cc(-c2nc(-c3ccc(Br)o3)no2)cc(OC)c1OC | -24.3 |  | 4.61 µM [rising, partial curve] |
| O=C(O)CC1NC(=O)N(c2ccccc2)C1=O (configuration not stated) | -13.2 |  | 18.4 µM [falling, single point] |
| C=CCN1CN(S(=O)(=O)c2cccc(Cl)c2)c2nc3ccccc3nc21 | 4.58 |  | 0.461 µM [rising, partial curve, poor fit] |
| CC(=O)N(Cc1ccc(F)cc1)C1=C(NCc2ccccc2)C(=O)c2ccccc2C1=O | -23.1 |  | 20.6 µM [falling, single point] |
| Nc1ccc(C(=O)OCC(=O)NC(=O)c2ccccc2)cc1[N+](=O)[O-] | 0.5 |  |  |
| O=C(CCC(=O)N(CC(=O)NC1CCCC1)Cc1ccc2c(c1)OCO2)Nc1nccs1 | 12.9 |  | 4.61 µM [rising, partial curve] |
| O=C(c1ccccc1)N1CCN(CCc2ccccc2)CC1 | 13.5 |  | 0.651 µM [rising, partial curve, poor fit] |
| COc1cc(/C=N/NC(=O)c2ccccc2O)ccc1OC(=O)CC1SC(=O)NC1=O (configuration not stated) | -14.4 |  | 29.1 µM [falling, single point] |
| Cc1ccc(CNc2ccc3c(c2)OCO3)c(C)c1 | -38.6 | 32.6 µM [falling, single point] | 18.4 µM [falling, partial curve] |
| O=C1c2cccc3c([N+](=O)[O-])ccc(c23)C(=O)N1Cc1cccnc1 | -81.2 | 18.4 µM [falling, single point] | 20.6 µM [falling, single point] |
| Cc1cc(C)cc(NC(=O)Nc2cnccn2)c1 | 2.6 |  |  |
| CCOC(=O)c1oc2cc(C)cc(O)c2c(=O)c1-c1csc(C)n1 | 35 | 29.1 µM [rising, single point] |  |
| Cc1oc2c(c1C(=O)NCCCC(=O)O)CCCC2 | -77 | 20.6 µM [falling, single point] |  |
| COc1ccc(C(OCC(O)CNC(C)c2ccccc2)c2ccc(OC)cc2)cc1 (configuration not stated) | 9.27 |  |  |

| Structure (SMILES) | cell number change [%] | AC50 [1] | AC50 [2] |
| --- | --- | --- | --- |
| CC1(C)C(=O)N(OCc2ccccc2)C(C)(C)C(=O)N1OCc1ccccc1 | 100 | 9.2 µM [rising, partial curve] | 14.6 µM [rising, partial curve] |
| CCOC(=O)N1CCN(C(=O)CSCc2ccccc2)CC1 | 8.41 | 5.17 µM [rising, single point] |  |
| CCCCN(C)C(=O)C1CCN(Cc2cccc(OCc3ccccc3)c2)CC1 | -29.4 |  |  |
| COc1ccccc1-n1cnc2cc(C(=O)NCC3CCCO3)ccc21 (configuration not stated) | 0.879 |  | 11.6 µM [rising, partial curve] |
| O=C(c1ccc2c(c1)OCO2)N(c1ccc(Br)cc1)C1C=CS(=O)(=O)C1 (configuration not stated) | -14.4 |  |  |
| COc1ccc(CCNC(=O)CSc2nc3cc(Cl)ccc3o2)cc1OC | -68.4 | 18.4 µM [falling, partial curve] | 9.2 µM [falling, partial curve] |
| CCSC1=N/C(=C\c2ccccc2)C(=O)N1 |  |  | 29.1 µM [rising, single point] |
| COc1ccc(C(=O)NC(=O)NC2(C(Cl)(Cl)Cl)OCCO2)cc1 | 15.9 | 0.651 µM [rising, full curve, poor fit] |  |
| O=C(CSc1nc2ccccc2c(=O)[nH]1)c1ccc(O)cc1O | 24.9 |  | 4.11 µM [falling, partial curve, poor fit] |
| C[C@]12CC[C@@H]3c4ccc(OC(=O)c5ccccc5)cc4CC[C@H]3[C@@H]1CC[C@@H]2O | -49.3 | 29.1 µM [falling, single point] | 23.1 µM [falling, partial curve] |
| CN(C(=O)COC(=O)C1CCN(S(=O)(=O)c2c(Cl)cccc2Cl)CC1)c1ccccc1 | 75.5 |  |  |
| Cc1ccc(-c2nnc(N3CCCCC3)c3ccccc23)cc1S(=O)(=O)NCC1CCCO1 (configuration not stated) | 1.53 |  |  |
| Cc1cccc(N2CCN(C(=O)c3cccc(N4CCCC4=O)c3)CC2)c1C |  |  | 29.1 µM [rising, single point] |
| CC1CC(NC(=O)Cc2ccc(Br)cc2)CC(C)(C)C1 (configuration not stated) | -24.5 |  | 29.1 µM [falling, single point] |
| Cc1ccc(NC(=S)Nc2cccnc2)c(S(=O)(=O)N2CCCCC2)c1 | -1.56 | 0.461 µM [rising, single point] |  |
| CCc1c(C)nc2c(-c3ccccc3)c(C)[nH]n2c1=O | -16.7 |  | 0.651 µM [falling, partial curve, poor fit] |
| Cc1cnc(NC2=NCCC2)s1 | -3.84 | 1.03 µM [falling, full curve] | 1.03 µM [falling, full curve] |
| CC(=O)Nc1ccc(NCC(=O)c2ccccc2)cc1 | 20.7 |  | 29.1 µM [falling, single point] |
| CC(=O)c1cccc(S(=O)(=O)N(CCCO)Cc2cc3ccc(C)cc3[nH]c2=O)c1 |  |  | 5.17 µM [rising, full curve, poor fit] |
| CCCCC(=O)N(CCOC)c1nnc(-c2ccc(OC)cc2)s1 | 9.06 |  | 25.9 µM [rising, single point] |

Shown as tab-separated lines: 2 of the compounds above.
Structure (SMILES)	cell number change [%]	AC50 [1]	AC50 [2]
COc1ccc2c(c1)CCc1c(C(=O)N3CCCc4ccccc43)noc1-2	93.6	13 µM [rising, partial curve]	29.1 µM [rising, single point]
CC(=O)c1cccc(S(=O)(=O)N(CCCO)Cc2cc3ccc(C)cc3[nH]c2=O)c1			5.17 µM [rising, full curve, poor fit]

Reference: PubChem BioAssay AID2685 (National Center for Advancing Translational Sciences (NCATS), 2010)
